# Results: patent US5644024 (dated 1997)
# Test: general procedure: hybrid (solid and solution phase) peptide synthesis; aminomethyl-polystyrene resin; EDC hydrochloride/HOBt (solution); TBTU/DIPEA (on resin)
# Conditions: for step yield: coupling step
Substance,step yield [%],cyclisation yield (cyclisation step) [%]
"[(12S, 15S,18S)-12,15-dimethyl-10,13,16-trioxo-10,11,12,13,14,15, 16,17,18,19,20,21-dodecahydro-1,1 8-etheno-dibenz[b,n][1,5,8, 11]oxatriazacyclopentadecen-18-ylcarbonyl]-L-alanyl-L-alanyl-L-alanyl-L-alanyl-L-alanyl-L-alanyl-(2-amino-2-methyl-propionyl)-L-alanyl-L-alanine (4-iodophenyl)amide",91.8,67
"[(12R,15R,18R)-12,15-dimethyl-10,13,16-trioxo-10,11,12,13,14,15,16,-17,18,19,20,21-dodecahydro-1,1 8-etheno-dibenz[b,n][1,5,8,11]oxatriazacyclopentadecen-18-ylcarbonyl]-L-alanyl-L-alanyl-L-alanyl-L-alanyl-L-alanyl-L-alanyl-(2-amino-2-methyl-propionyl)-L-alanyl-L-alanine (4-iodophenyl)amide",87.7,–
